{
  "source": "the supplement of paper PMC4604168 (melanoma cell lines)",
  "note": "This is one part of the list. Single values are uncertain, as repeats are few or missing.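 Imaging used 1,536-well plates; nuclei positive for cleaved PARP by antibody were divided by total DNA-stained nuclei to yield the apoptosis fraction. Doses for screening kept most cells viable, and cell lines differ markedly in resting and induced cleaved-PARP levels.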",
  "data": [
    {"system": "COLO800", "assay": "cleaved PARP positive nuclei fraction relative to DMSO control; melanoma cells; higher = more apoptosis", "conditions": "library dose: low library concentration; 72 h", "units": {"cleaved PARP positive nuclei fraction": "%"}, "values": [
      {"compound": "NCC(=O)Nc1ccc(-n2nc(C(F)(F)F)cc2-c2ccc3c(ccc4ccccc43)c2)cc1", "note": "+ COc1cc2ncnc(Nc3ccc(Oc4ccccc4)cc3)c2cc1OC [SrcI1] (first compound 1 µM, partner dose 2 µM)", "cleaved PARP positive nuclei fraction": 93.5},
      {"compound": "NCC(=O)Nc1ccc(-n2nc(C(F)(F)F)cc2-c2ccc3c(ccc4ccccc43)c2)cc1", "note": "+ O=C1NC(=O)/C(=C/c2ccc(-c3ccc(F)cc3O)o2)S1 [AS252424] (first compound 1 µM, partner dose 1 µM)", "cleaved PARP positive nuclei fraction": 124},
      {"compound": "COc1cc2ncnc(Nc3ccc(Oc4ccccc4)cc3)c2cc1OC", "note": "+ c1cc(-c2cnn3cc(-c4ccc(OCCN5CCCCC5)cc4)cnc23)ccn1 [Dorsomorphin] (first compound 2 µM, partner dose 0.4 µM)", "cleaved PARP positive nuclei fraction": 101},
      {"compound": "CCc1ccc(CCOc2ccc(CC3SC(=O)NC3=O)cc2)nc1", "note": "(stereo unspecified) [pioglitazone] + COC(=O)c1sccc1S(=O)(=O)Nc1ccc(Nc2ccccc2)cc1OC [GSK0660] (first compound 2 µM, partner dose 1 µM)", "cleaved PARP positive nuclei fraction": 84.4},
      {"compound": "O=C(Nc1ccccc1)c1cc([N+](=O)[O-])ccc1Cl", "note": "+ COc1ccc2c(c1)CCC1C2CCC2(C)C(NCCCCCCN3C(=O)C=CC3=O)CCC12 [U73122] (first compound 2 µM, partner dose 0.4 µM)", "cleaved PARP positive nuclei fraction": 27.8},
      {"compound": "COc1cc2c(Oc3ccc4[nH]c(C)cc4c3F)ncnc2cc1OCCCN1CCCC1", "note": "[cediranib] + O=C1NC(=O)/C(=C/c2ccc(-c3ccc(F)cc3O)o2)S1 [AS252424] (first compound 0.4 µM, partner dose 1 µM)", "cleaved PARP positive nuclei fraction": 61.2},
      {"compound": "O=C(O)c1ccc(-c2c[nH]c3ncc(-c4ccccc4)cc23)cc1C1CCCC1", "note": "+ CCc1ccc(CCOc2ccc(CC3SC(=O)NC3=O)cc2)nc1 [pioglitazone] (first compound 0.16 µM, partner dose 2 µM)", "cleaved PARP positive nuclei fraction": 119},
      {"compound": "COc1cc2ncnc(Nc3ccc(Oc4ccccc4)cc3)c2cc1OC", "note": "+ Oc1cc(-c2nc(-c3ccccc3)[nH]c2-c2ccncc2)ccc1Cl [L779450] (first compound 2 µM, partner dose 0.2 µM)", "cleaved PARP positive nuclei fraction": 112},
      {"compound": "Oc1nc(-c2ccc(C(F)(F)F)cc2)nc2c1CSCC2", "note": "+ O=c1cc(-c2cccc3c2Sc2ccccc2S3)oc(N2CCOCC2)c1 [KU55933] (first compound 2 µM, partner dose 1 µM)", "cleaved PARP positive nuclei fraction": 135},
      {"compound": "COc1ccc(-c2ccc3c(N4CCOCC4)nc(N4C[C@@H](C)O[C@@H](C)C4)nc3n2)cc1CO", "note": "+ O=S(=O)(c1ccccc1)N(CC(F)(F)F)c1ccc(C(O)(C(F)(F)F)C(F)(F)F)cc1 [T0901317] (first compound 0.02 µM, partner dose 1.4 µM)", "cleaved PARP positive nuclei fraction": 89.1},
      {"compound": "N#Cc1c(O)c2c(-c3ccc(-c4ccccc4O)cc3)csc2[nH]c1=O", "note": "+ Cn1cc(/C=C2\\C(=O)Nc3cccnc32)c2ccccc21 [GW441756] (first compound 2 µM, partner dose 0.4 µM)", "cleaved PARP positive nuclei fraction": 209},
      {"compound": "NCC(=O)Nc1ccc(-n2nc(C(F)(F)F)cc2-c2ccc3c(ccc4ccccc43)c2)cc1", "note": "+ O=C(O)C(=O)Nc1sc2c(c1C(=O)O)CCNC2 [TCS401] (first compound 1 µM, partner dose 1.66667 µM)", "cleaved PARP positive nuclei fraction": 198},
      {"compound": "NCC(=O)Nc1ccc(-n2nc(C(F)(F)F)cc2-c2ccc3c(ccc4ccccc43)c2)cc1", "note": "+ CCc1ccc(CCOc2ccc(CC3SC(=O)NC3=O)cc2)nc1 [pioglitazone] (first compound 1 µM, partner dose 2 µM)", "cleaved PARP positive nuclei fraction": 179},
      {"compound": "O=C(Nc1ccccc1)c1cc([N+](=O)[O-])ccc1Cl", "note": "+ CC(C)CCN1c2nc(Nc3cc(F)c(O)c(F)c3)ncc2N(C)C(=O)C1C [BID1870] (first compound 2 µM, partner dose 0.2 µM)", "cleaved PARP positive nuclei fraction": 198},
      {"compound": "O=C(O)c1ccc(-c2c[nH]c3ncc(-c4ccccc4)cc23)cc1C1CCCC1", "note": "+ Oc1cc(-c2nc(-c3ccccc3)[nH]c2-c2ccncc2)ccc1Cl [L779450] (first compound 0.16 µM, partner dose 0.2 µM)", "cleaved PARP positive nuclei fraction": 117},
      {"compound": "CN(C)S(=O)(=O)c1ccc2c(c1)/C(=C/c1cc3c([nH]1)CCCC3)C(=O)N2", "note": "+ COc1ccc(COc2ccc(Cc3cnc(N)nc3N)cc2OC)cc1 [GW2580] (first compound 0.4 µM, partner dose 1 µM)", "cleaved PARP positive nuclei fraction": 133},
      {"compound": "COc1ccc(COc2ccc(Cc3cnc(N)nc3N)cc2OC)cc1", "note": "+ c1cc(-c2cnn3cc(-c4ccc(OCCN5CCCCC5)cc4)cnc23)ccn1 [Dorsomorphin] (first compound 1 µM, partner dose 0.4 µM)", "cleaved PARP positive nuclei fraction": 103},
      {"compound": "COc1ccc(-c2ccc3c(N4CCOCC4)nc(N4C[C@@H](C)O[C@@H](C)C4)nc3n2)cc1CO", "note": "+ Oc1cc(-c2nc(-c3ccccc3)[nH]c2-c2ccncc2)ccc1Cl [L779450] (first compound 0.02 µM, partner dose 0.2 µM)", "cleaved PARP positive nuclei fraction": 57.4},
      {"compound": "CCN(CC)CCCCNc1ncc2cc(-c3cc(OC)cc(OC)c3)c(NC(=O)NC(C)(C)C)nc2n1", "note": "+ Cc1cc([N+](=O)[O-])ccc1NS(=O)(=O)c1cc(Cl)ccc1Cl [FH535] (first compound 0.1 µM, partner dose 1 µM)", "cleaved PARP positive nuclei fraction": 67.6},
      {"compound": "O=S(=O)(c1ccccc1)N(CC(F)(F)F)c1ccc(C(O)(C(F)(F)F)C(F)(F)F)cc1", "note": "+ Cc1cc([N+](=O)[O-])ccc1NS(=O)(=O)c1cc(Cl)ccc1Cl [FH535] (first compound 1.4 µM, partner dose 1 µM)", "cleaved PARP positive nuclei fraction": 72.5},
      {"compound": "COc1cc2ncnc(Nc3ccc(Oc4ccccc4)cc3)c2cc1OC", "note": "+ O=C(O)C(=O)Nc1sc2c(c1C(=O)O)CCNC2 [TCS401] (first compound 2 µM, partner dose 1.66667 µM)", "cleaved PARP positive nuclei fraction": 91.1}
    ]}
  ]
}
